This continues a long series; more values of the same kind are listed elsewhere.
System: library of 8,380 IKZF3 degrons (ZF-eGFP/mCherry reporter) in Jurkat cells
Experiment: Pooled library screen (FACS, NGS, limma voom LogFC of positive vs negative read counts)
Format: cell-based, human
Description: A library of 8,380 IKZF3 degrons was cloned into pLVX-Sprout to create the eGFP/mCherry protein degradation reporter plasmid pool. A lentivirus pool was then generated using the Lenti-X lentiviral vector production method.
Jurkat cells were transduced at a multiplicity of infection of <0.3 with the lentivirus vector library in order to maximise the number of cells with a single integration. Transductions were carried out in 6 well TC-treated cell culture dishes (Falcon) with 3×10^6 cells per well. Cells were incubated for 2 days at 37° C. and 5% CO2 before the supernatant was removed and replaced with fresh media. 6 days post-transduction, mCherry+ cells were isolated via FACS using the FACS Aria Fusion (BD) in a buffer containing PBS (Gibco), 2 mM EDTA (Gibco), 25 mM HEPES (Sigma) and 1% BSA (Sigma). 8 days later, cells were treated with DMSO or a thalidomide analog for 18 hours at 37° C. and 5% CO2. mCherry+GFPlow and NOT(mCherry+GFPlow) cells were sorted by FACS using the FACS Aria Fusion (BD). DMSO treated cells were used to set the mCherry+GFPlow gate and dead cells were excluded from sorting by staining cells with 1 μg/mL DAPI (ThermoFisher). gDNA was isolated using the Maxwell RSC 48 (Promega). gDNA from cells that were unsorted and untreated were also isolated to determine the library representation on the day of compound treatment. Throughout the screen >600× coverage of the library was maintained. 3 biological replicates were carried out with a new transduction taking place each time.
A two-step PCR was used where the first PCR (PCR1) amplified the integrated degron sequence from gDNA and the second PCR (PCR2) added Illumina adaptors and barcodes to permit multiplexing. See Supp F for PCR1 and PCR2 primers. Q5 Hot Start High-Fidelity 2× Master Mix (New England Biolabs) was used for both PCRs. Sufficient gDNA was amplified in PCR1 in order to maintain >600× coverage and amplicons were purified using solid phase reversible immobilization (SPRI) beads (Beckman Coulter). Purified PCR1 products were analysed on the Tapestation 4200 (Agilent) to confirm purity prior to proceeding to PCR2. Sufficient PCR1 product was amplified in PCR2 in order to maintain >600× coverage and amplicons were run on a 2% agarose TAE gel. Target bands were excised and purified using the NucleoSpin Gel and PCR Clean-up Kit (Machery Nagel). Amplicons were analysed on the Tapestation 4200 and quantified using Qubit dsDNA HS kit (ThermoFisher). PCR products were pooled and sequenced as paired-reads on the NovaSeq (Illumina) using a SP2 200 cycles kit (Illumina).
Count distributions, percentage of read mapping, library coverage and replicate correlation per sample were assessed for QC purposes.
To carry out the library screen, we used the same plasmid construct as in our earlier flow cytometry assays, but pooling all 8,380 mutants together into one Jurkat population, ensuring a copy number of one plasmid per cell (FIG. 4B). […] These GFP-negative cells were then separated from the remaining GFP-positive population using fluorescence activated cell sorting (FACS). These two populations were then sequenced and the relative abundance of every mutant in both populations compared to provide a log FC value for each mutant sequence. This value indicated how frequently a sequence is observed in the GFP-negative population relative to the GFP-positive population, and therefore how effective a degron it is for that particular IMID compound.

O=C1CCC(N2C(=O)c3ccc(N4CCOCC4)cc3C2=O)C(=O)N1 (stereo not shown) [B03]
B03_logFC (Degron-ID 473, SEQ ID NO 4279, 46F_47C_49P_50V_52G_53A_54Q_55F_67L_): 2.247 | B03_logFC (Degron-ID 961, SEQ ID NO 3743, 46F_47F_49D_50I_52G_53A_54C_55F_67L_): 3.143 | B03_logFC (Degron-ID 968, SEQ ID NO 3735, 46F_47F_49D_50I_52G_53A_54K_55F_67L_): 3.148 | B03_logFC (Degron-ID 971, SEQ ID NO 3697, 46F_47F_49D_50I_52G_53A_54N_55F_67L_): 3.228 | B03_logFC (Degron-ID 972, SEQ ID NO 3727, 46F_47F_49D_50I_52G_53A_54P_55F_67L_): 3.157 | B03_logFC (Degron-ID 973, SEQ ID NO 3676, 46F_47F_49D_50I_52G_53A_54Q_55F_67L_): 3.285 | B03_logFC (Degron-ID 974, SEQ ID NO 3647, 46F_47F_49D_50I_52G_53A_54R_55F_67L_): 3.355 | B03_logFC (Degron-ID 975, SEQ ID NO 3811, 46F_47F_49D_50I_52G_53A_54S_55F_67L_): 2.989 | B03_logFC (Degron-ID 976, SEQ ID NO 3943, 46F_47F_49D_50I_52G_53A_54T_55F_67L): 2.769 | B03_logFC (Degron-ID 1013, SEQ ID NO 3722, 46F_47F_49D_50V_52G_53A_54Q_55F_67L_): 3.163 | B03_logFC (Degron-ID 1014, SEQ ID NO 3734, 46F_47F_49D_50V_52G_53A_54R_55F_67L_): 3.151 | B03_logFC (Degron-ID 1016, SEQ ID NO 4271, 46F_47F_49D_50V_52G_53A_54T_55F_67L_): 2.263 | B03_logFC (Degron-ID 1023, SEQ ID NO 3757, 46F_47F_49E_50I_52G_53A_54E_55F_67L_): 3.114 | B03_logFC (Degron-ID 1024, SEQ ID NO 3935, 46F_47F_49E_50I_52G_53A_54F_55F_67L): 2.781 | B03_logFC (Degron-ID 1025, SEQ ID NO 3864, 46F_47F_49E_50I_52G_53A_54G_55F_67L): 2.896 | B03_logFC (Degron-ID 1026, SEQ ID NO 3658, 46F_47F_49E_50I_52G_53A_54H_55F_67L_): 3.33 | B03_logFC (Degron-ID 1029, SEQ ID NO 3862, 46F_47F_49E_50I_52G_53A_54L_55F_67L): 2.907 | B03_logFC (Degron-ID 1030, SEQ ID NO 3752, 46F_47F_49E_50I_52G_53A_54M_55F_67L_): 3.121 | B03_logFC (Degron-ID 1032, SEQ ID NO 3651, 46F_47F_49E_50I_52G_53A_54P_55F_67L_): 3.341 | B03_logFC (Degron-ID 1039, SEQ ID NO 3906, 46F_47F_49E_50I_52G_53A_54Y_55F_67L): 2.842 | B03_logFC (Degron-ID 1063, SEQ ID NO 3779, 46F_47F_49E_50V_52G_53A_54E_55F_67L_): 3.046 | B03_logFC (Degron-ID 1066, SEQ ID NO 3749, 46F_47F_49E_50V_52G_53A_54H_55F_67L_): 3.124 | B03_logFC (Degron-ID 1067, SEQ ID NO 3797, 46F_47F_49E_50V_52G_53A_54I_55F_67L_): 3.017 | B03_logFC (Degron-ID 1069, SEQ ID NO 4038, 46F_47F_49E_50V_52G_53A_54L_55F_67L): 2.626 | B03_logFC (Degron-ID 1070, SEQ ID NO 3742, 46F_47F_49E_50V_52G_53A_54M_55F_67L_): 3.145 | B03_logFC (Degron-ID 1072, SEQ ID NO 3712, 46F_47F_49E_50V_52G_53A_54P_55F_67L_): 3.184 | B03_logFC (Degron-ID 1092, SEQ ID NO 3675, 46F_47F_49N_50I_52G_53A_54P_55F_67L_): 3.287 | B03_logFC (Degron-ID 1093, SEQ ID NO 3920, 46F_47F_49N_50I_52G_53A_54Q_55F_67L): 2.812 | B03_logFC (Degron-ID 1140, SEQ ID NO 3806, 46F_47F_49P_50I_52G_53A_54A_55F_67L_): 2.999 | B03_logFC (Degron-ID 1143, SEQ ID NO 3907, 46F_47F_49P_50I_52G_53A_54E_55F_67L): 2.84 | B03_logFC (Degron-ID 1145, SEQ ID NO 4326, 46F_47F_49P_50I_52G_53A_54G_55F_67L_): 2.158 | B03_logFC (Degron-ID 1146, SEQ ID NO 3911, 46F_47F_49P_50I_52G_53A_54H_55F_67L): 2.831 | B03_logFC (Degron-ID 1148, SEQ ID NO 3857, 46F_47F_49P_50I_52G_53A_54K_55F_67L): 2.914 | B03_logFC (Degron-ID 1154, SEQ ID NO 3649, 46F_47F_49P_50I_52G_53A_54R_55F_67L_): 3.35 | B03_logFC (Degron-ID 1155, SEQ ID NO 3717, 46F_47F_49P_50I_52G_53A_54S_55F_67L_): 3.179 | B03_logFC (Degron-ID 1157, SEQ ID NO 3816, 46F_47F_49P_50I_52G_53A_54V_55F_67L_): 2.98 | B03_logFC (Degron-ID 1159, SEQ ID NO 3848, 46F_47F_49P_50I_52G_53A_54Y_55F_67L): 2.926 | B03_logFC (Degron-ID 1180, SEQ ID NO 3859, 46F_47F_49P_50V_52G_53A_54A_55F_67L): 2.907 | B03_logFC (Degron-ID 1181, SEQ ID NO 3653, 46F_47F_49P_50V_52G_53A_54C_55F_67L_): 3.339 | B03_logFC (Degron-ID 1184, SEQ ID NO 4299, 46F_47F_49P_50V_52G_53A_54F_55F_67L_): 2.222 | B03_logFC (Degron-ID 1185, SEQ ID NO 4414, 46F_47F_49P_50V_52G_53A_54G_55F_67L_): 2.026 | B03_logFC (Degron-ID 1186, SEQ ID NO 3908, 46F_47F_49P_50V_52G_53A_54H_55F_67L): 2.837 | B03_logFC (Degron-ID 1187, SEQ ID NO 4376, 46F_47F_49P_50V_52G_53A_54I_55F_67L_): 2.075
